The list shows a part of the results. Most values lie at the level of the controls, where differences are scatter.
Compound: CN[C@@H]1C[C@H]2O[C@@](C)([C@@H]1OC)n1c3ccccc3c3c4c(c5c6ccccc6n2c5c31)C(=O)NC4 [staurosporine]
Test: log2 fold change of tryptic peptide abundance, ligand vs vehicle (limited proteolysis) (log2 ratio); higher = more trypsin-susceptible (destabilized)
Settings: ligand concentration: 20 uM; sample: mouse liver crude lysate; replicate design: treated separately

Sequences of proteins named here, by UniProt entry; tags and fusion partners are left off. A change or cut given only in a name is not applied to a line headed by its entry.
UniProt Q99LJ0: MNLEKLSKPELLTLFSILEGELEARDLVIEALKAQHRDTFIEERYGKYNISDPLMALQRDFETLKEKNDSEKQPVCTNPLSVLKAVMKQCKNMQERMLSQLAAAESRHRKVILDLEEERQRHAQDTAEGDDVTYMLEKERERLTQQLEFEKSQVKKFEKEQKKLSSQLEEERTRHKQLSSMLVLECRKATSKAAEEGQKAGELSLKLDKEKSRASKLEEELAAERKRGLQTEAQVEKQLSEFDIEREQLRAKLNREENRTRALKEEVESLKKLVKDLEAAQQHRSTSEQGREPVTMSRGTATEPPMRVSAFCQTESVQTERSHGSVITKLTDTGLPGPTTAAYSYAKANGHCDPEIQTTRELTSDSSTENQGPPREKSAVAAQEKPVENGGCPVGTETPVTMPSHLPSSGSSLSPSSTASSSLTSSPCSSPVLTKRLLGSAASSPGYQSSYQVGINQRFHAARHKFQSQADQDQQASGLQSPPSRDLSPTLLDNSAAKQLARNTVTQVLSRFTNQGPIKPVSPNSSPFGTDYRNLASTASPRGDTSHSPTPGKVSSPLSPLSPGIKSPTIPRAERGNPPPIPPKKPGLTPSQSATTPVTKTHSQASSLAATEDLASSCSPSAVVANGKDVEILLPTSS
UniProt Q9CQ18: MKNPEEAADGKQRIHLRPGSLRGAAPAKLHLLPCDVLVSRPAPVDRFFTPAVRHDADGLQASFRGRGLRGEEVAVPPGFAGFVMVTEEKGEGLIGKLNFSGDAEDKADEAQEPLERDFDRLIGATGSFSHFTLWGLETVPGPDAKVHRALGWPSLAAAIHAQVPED
UniProt Q99P51: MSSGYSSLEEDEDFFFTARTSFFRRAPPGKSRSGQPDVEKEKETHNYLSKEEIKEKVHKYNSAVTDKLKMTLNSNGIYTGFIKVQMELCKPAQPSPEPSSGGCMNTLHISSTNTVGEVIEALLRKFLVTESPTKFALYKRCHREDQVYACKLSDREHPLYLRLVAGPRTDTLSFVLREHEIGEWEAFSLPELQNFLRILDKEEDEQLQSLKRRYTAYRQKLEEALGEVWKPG
UniProt Q9CQZ1: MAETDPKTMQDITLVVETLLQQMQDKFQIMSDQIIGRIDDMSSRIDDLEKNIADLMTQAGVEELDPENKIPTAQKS
UniProt Q9CQ56: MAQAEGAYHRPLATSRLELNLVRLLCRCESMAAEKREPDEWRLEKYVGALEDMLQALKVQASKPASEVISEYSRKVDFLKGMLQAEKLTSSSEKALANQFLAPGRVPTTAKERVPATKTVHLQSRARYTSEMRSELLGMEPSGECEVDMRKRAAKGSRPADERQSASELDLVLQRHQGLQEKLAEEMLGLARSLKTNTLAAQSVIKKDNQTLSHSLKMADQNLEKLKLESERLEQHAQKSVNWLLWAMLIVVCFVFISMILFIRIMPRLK

Target	log2 fold change
UniProt Q99LJ0 (peptide sequence: STSEQGREPVTMSR, peptide start residue: 285)	-0.579
UniProt Q9CQ18 (peptide sequence: HDADGLQASFR, peptide start residue: 54)	0.164
UniProt Q99P51 (peptide sequence: YNSAVTDKLK, peptide start residue: 60)	0.405
UniProt Q9CQZ1 (peptide sequence: FQIMSDQIIGR, peptide start residue: 27)	0.0333
UniProt Q9CQ56 (peptide sequence: CESMAAEKR, peptide start residue: 28)	0.553

Source: the supplement of paper PMC12819154, “High-throughput peptide-centric local stability assay extends protein–ligand identification to membrane proteins, tissues and bacteria” (Nature Structural & Molecular Biology, 2025)
